Source: patent US12491246B2 (KLEO PHARMACEUTICALS, INC., priority 2018, dated 2025)

Experiment: general procedure: Fmoc solid-phase peptide synthesis; CTC Resin; HBTU/DIEA (HATU/DIEA for biotin-PEG8-CH2CH2COOH)
Conditions: conjugation step

PEPTIDE1{[CH2CO].A.R.[Ahp].Y.H.D.G.V.L.[Bip].[Ahp].D.C.[PEG6BCN].[Inp].G.[D-gGlu].[D-gGlu].[dE].[D-gGlu].[D-gGlu].G.G.D.C.A.W.H.L.G.E.L.V.W.C.T}$PEPTIDE1,PEPTIDE1,1:R3-14:R3|PEPTIDE1,PEPTIDE1,26:R3-36:R3$$$V2.0
conjugation yield: 56.9% | final purity (method not given): 98.4%

Strings that start with PEPTIDE1 are HELM notation: dots part the residues, brackets hold end groups and non-standard residues.
